Record: PubChem BioAssay AID1159578 (Peter MacCallum Cancer Centre, 2015)
Purpose: 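Genome-wide hunt for genes controlling movement of lymphatic endothelial cells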 (primary screen). Cell system: human lymphatic endothelial cells. Knock-down reagent: siRNA pool against human genes, 40 nM. Duration: 48 h after transfection. Read-out: 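High-content imaging of dye-stained cells in a scratch assay measures filled wound area and nuclei per well; duplicate means given as ratio to mock and robust z-score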. Reading the numbers: migration robust z-score: higher = faster migration into the scratch; migration relative to mock: higher = more scratch area covered than mock; nuclei per well: higher = more cells in the well. Active means: 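Pools averaging fewer than 3300 nuclei are never called; remaining pools count as changed when migration robust z lies outside -2 to 2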. Meaning of the calls: active = migration changed; inactive = no migration change, or too few cells.
In all, the deposit lists about 18,000 reagents; below is an unselected part. About 1,030 of all reagents (5.7%) were called active. 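Inactive calls also include pools with fewer than 3300 nuclei, whose migration was not assessed.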 The raw values are shown without normalisation. Unmarked entries are inactive.

gene	migration robust z-score	migration class with cell-count check	migration relative to mock	nuclei per well, duplicate mean
ZNF142	1.28	migration z between -2 and 2; enough cells	1.21	5706
TMEM168	2.25 (active)	migration z above 2; enough cells	1.47	5734
PARP8	-0.68	migration z between -2 and 2; enough cells	0.7	6337
SLC25A13	0.24	migration z between -2 and 2; enough cells	0.85	5370
MXRA7	1.77	migration z between -2 and 2; enough cells	1.34	4460
RSBN1	0.18	migration z between -2 and 2; enough cells	0.93	6253
FOXN3	0.6	migration z between -2 and 2; enough cells	0.92	6224
OR2M7	-0.54	migration z between -2 and 2; enough cells	0.74	4876
ENAH	0.26	migration z between -2 and 2; enough cells	0.95	5553
GCN1	-0.08	migration z between -2 and 2; enough cells	0.79	5928
DHRS9	-0.29	migration z between -2 and 2; enough cells	0.75	4846
PRICKLE3	0.44	migration z between -2 and 2; enough cells	0.89	4923
HNRNPA2B1	1.4	migration z between -2 and 2; enough cells	1.25	6493
DENND2A	0.97	migration z between -2 and 2; enough cells	1.14	7544
PRB2	-0.58	migration z between -2 and 2; enough cells	0.74	6066
CACNA2D4	-0.56	migration z between -2 and 2; enough cells	0.74	5352
ZNF284	0.76	migration z between -2 and 2; enough cells	1.08	4838
ORMDL2	0.7	migration z between -2 and 2; enough cells	1.07	4972
OR4F15	-0.07	migration z between -2 and 2; enough cells	0.87	7115
SEMA3D	-0.01	migration z between -2 and 2; enough cells	0.88	6290
ZFYVE28	-0.41	migration z between -2 and 2; enough cells	0.78	5924
KCNJ6	-0.72	migration z between -2 and 2; enough cells	0.66	8352
GLIPR2	-0.06	migration z between -2 and 2; enough cells	0.87	6106
MRPS22	1.88	migration z between -2 and 2; enough cells	1.37	6577
PLAAT4	-0.83	migration z between -2 and 2; enough cells	0.64	4986
SECISBP2	1.03	migration z between -2 and 2; enough cells	1	5642
CIDEB	0.1	migration z between -2 and 2; enough cells	0.91	4921
SPACDR	-0.67	migration z between -2 and 2; enough cells	0.71	6076
COXFA4L2	-0.26	migration z between -2 and 2; enough cells	0.76	6366
NIPSNAP3B	1.21	migration z between -2 and 2; enough cells	1.2	6740
LSM10	1.4	migration z between -2 and 2; enough cells	1.25	5271
LRPPRC	-2.37 (active)	migration z below -2; enough cells	0.27	4644
IFT70A	-0.94	migration z between -2 and 2; enough cells	0.64	4086
RFFL	1.17	migration z between -2 and 2; enough cells	1.03	6016
LCE3C	-0.98	migration z between -2 and 2; enough cells	0.62	4747
MTMR6	0.24	migration z between -2 and 2; enough cells	0.85	4476
API5	0.05	migration z between -2 and 2; enough cells	0.9	5804
IREB2	-0.68	migration z between -2 and 2; enough cells	0.68	5694
LIPN	-2.1 (active)	migration z below -2; enough cells	0.4	4150
KLK11	-2.7 (active)	migration z below -2; enough cells	0.29	4930
CYP26B1	-0.49	migration z between -2 and 2; enough cells	0.71	6994
NCR1	0.44	migration z between -2 and 2; enough cells	0.89	5200
EDC3	-1.9	migration z between -2 and 2; enough cells	0.39	5144
EEF1A1	-0.47	migration z between -2 and 2; enough cells	0.72	4886
GDF3	-2.47 (active)	migration z below -2; enough cells	0.24	5054
SKIL	1.5	migration z between -2 and 2; enough cells	1.1	5479
GRIA3	0.36	migration z between -2 and 2; enough cells	0.88	6340
POLR2D	-4.62	under 3300 nuclei; migration not judged	-0.08	2834
TAF5	1.09	migration z between -2 and 2; enough cells	1.02	6934
AMPD2	0.6	migration z between -2 and 2; enough cells	0.92	5023
COPE	-0.32	migration z between -2 and 2; enough cells	0.8	5748
SHARPIN	1.05	migration z between -2 and 2; enough cells	1.16	6281
SBF2	-1.31	migration z between -2 and 2; enough cells	0.54	5961
VEPH1	-0.84	migration z between -2 and 2; enough cells	0.66	6184
MAK16	-0.16	migration z between -2 and 2; enough cells	0.84	6012
HSPBAP1	-0.03	migration z between -2 and 2; enough cells	0.88	5744
CYP4F2	-2.69 (active)	migration z below -2; enough cells	0.29	4176

Only “migration relative to mock” (5 entries from above):
LRPPRC	0.27 (active)
IFT70A	0.64
RFFL	1.03
LCE3C	0.62
MTMR6	0.85
